Measurements published in publication PMC7402621.

Columns and labels:
[1] = biological target: N-terminally 3×FLAG-tagged Nsp1 of SARS-CoV-2 (SARS-CoV-2) (UniProt P0DTD1); test: affinity purification with mass spectrometry + cryo-EM structure
[2] = biological target: N-terminally 3×FLAG-tagged Nsp1 of SARS-CoV-2 (SARS-CoV-2) (UniProt P0DTD1); test: as above; remark: listed apart in the source

Molecule | binding [1] | binding [2]
cell growth–regulating nucleolar protein Ly 1 antibody reactive (LYAR) (from UniProt Q9NX58 1-379) | binds | 
cytosolic ribosome biogenesis factor TSR1 (protein, UniProt Q2NL82 1-804) MAAHRPGPLKQQNKAHKGGRHRGRGSAQRDGKGRLALKTLSKKVRKELSRVDQRHRASQLRKQKKEAVLAEKRQLGGKDGPPHQVLVVPLHSRISLPEAMQLLQDRDTGTVHLNELGNTQNFMLLCPRLKHRWFFTSARPGDLHVVLDMAKVADTILFLLDPLEGWDSTGDYCLSCLFAQGLPTYTLAVQGISGLPLKKQIDTRKKLSKAVEKRFPHDKLLLLDTQQEAGMLLRQLANQKQQHLAFRDRRAYLFAHAVDFVPSEENNLVGTLKISGYVRGQTLNVNRLLHIVGYGDFQMKQIDAPGDPFPLNPRGIKPQKDPDMAMEICATDAVDDMEEGLKVLMKADPGRQESLQAEVIPDPMEGEQTWPTEEELSEAKDFLKESSKVVKKVPKGTSSYQAEWILDGGSQSGGEGDEYEYDDMEHEDFMEEESQDESSEEEEEYETMTIGESVHDDLYDKKVDEEAEAKMLEKYKQERLEEMFPDEVDTPRDVAARIRFQKYRGLKSFRTSPWDPKENLPQDYARIFQFQNFTNTRKSIFKEVEEKEVEGAEVGWYVTLHVSEVPVSVVECFRQGTPLIAFSLLPHEQKMSVLNMVVRRDPGNTEPVKAKEELIFHCGFRRFRASPLFSQHTAADKHKLQRFLTADMALVATVYAPITFPPASVLLFKQKSNGMHSLIATGHLMSVDPDRMVIKRVVLSGHPFKIFTKMAVVRYMFFNREDVLWFKPVELRTKWGRRGHIKEPLGTHGHMKCSFDGKLKSQDTVLMNLYKRVFPKWTYDPYVPEPVPWLKSEISSTVPQGGME |  | binds
coiled-coil domain containing short open reading frame 124 (CCDC124) (protein, UniProt Q96CT7 1-223) MPKKFQGENTKSAAARARRAEAKAAADAKKQKELEDAYWKDDDKHVMRKEQRKEEKEKRRLDQLERKKETQRLLEEEDSKLKGGKAPRVATSSKVTRAQIEDTLRRDHQLREAPDTAEKAKSHLEVPLEENVNRRVLEEGSVEARTIEDAIAVLSVAEEAADRHPERRMRAAFTAFEEAQLPRLKQENPNMRLSQLKQLLKKEWLRSPDNPMNQRAVPFNAPK |  | binds

Like-named read-outs stand apart in the source and are kept apart here. Results are given in words; binding and its absence hold for the method and conditions named. Binding seen in cells or lysates may run through a third protein. A yes stands for co-enrichment or nearness to the bait. Other partners may have been found.
